This is an account of results in patent US20170137511A1.

The assay addresses T1, IL-15 peptide fragment stretch 61…72 (human).
T1 sequence (peptide): DTVENLIILANN
In words: CLIPS/PEPSCAN peptide array ELISA. Background: In an ELISA, binding on a coated surface is turned into a signal by an enzyme label.

Substitutions are numbered along the chain they refer to. Results are given in words; binding and its absence hold for the method and conditions named. Some results given as binding are weak or reduced against the parent protein; the word gives no strength.

B1: huB-E29-10 (antibody, human IgG1, kappa, V domains shown)
VH: EVRLMASGGGLVQPGGSLRLSCAASEFTFSNYAMSWVRQAPGKGLEWVATISRGGDYTYYPDTVKGRFTISRDNSKNTLYLQMNSLRAEDTAVYYCARRVSMITGGYAMDYWGQGTLVTVSS
VL: DVVMTQSPLSLPVTLGQPASISCRSSQSIVDITGNTYLEWYQQRPGQSPRLLIYKVFNRFSGVPDRFSGSGSGTDFTLKISRVEAEDVGVYYCFQDSFVPYTFGQGTKLEIKR
Consider B1, for which the binding result was “binds”.

B2: huB-E29-24 (antibody, human IgG1, kappa, V domains shown)
VH: B1 VH with R3Q, M5V, A6E, T63S
VL: B1 VL
Consider B2, for which the binding entry is “binds”.
